Data reported in the M2OR odorant receptor database.
Changes are numbered by the printed parent chain. Only a part is listed here, and it is no random draw. The calls were merged from several studies; some rest on single wells. This is one part of the list.

Protein sequences, listed by entry. Tags and fused reporters are not part of them. Lines headed by an entry give the natural chain unless they say otherwise; changes in a name come on top.
UniProt Q8NGZ5: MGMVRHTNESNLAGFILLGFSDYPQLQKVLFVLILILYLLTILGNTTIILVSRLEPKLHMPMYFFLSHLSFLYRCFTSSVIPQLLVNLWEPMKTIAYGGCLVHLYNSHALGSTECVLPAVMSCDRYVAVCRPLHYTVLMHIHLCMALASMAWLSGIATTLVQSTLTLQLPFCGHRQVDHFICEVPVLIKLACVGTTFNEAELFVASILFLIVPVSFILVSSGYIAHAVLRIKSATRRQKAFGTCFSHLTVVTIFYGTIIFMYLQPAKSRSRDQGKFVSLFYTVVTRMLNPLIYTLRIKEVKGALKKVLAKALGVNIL

Experiments:
Settings in all cases: stereoisomer not certain
[1] = test system: T1, OR2C3
T1 sequence (whole entry): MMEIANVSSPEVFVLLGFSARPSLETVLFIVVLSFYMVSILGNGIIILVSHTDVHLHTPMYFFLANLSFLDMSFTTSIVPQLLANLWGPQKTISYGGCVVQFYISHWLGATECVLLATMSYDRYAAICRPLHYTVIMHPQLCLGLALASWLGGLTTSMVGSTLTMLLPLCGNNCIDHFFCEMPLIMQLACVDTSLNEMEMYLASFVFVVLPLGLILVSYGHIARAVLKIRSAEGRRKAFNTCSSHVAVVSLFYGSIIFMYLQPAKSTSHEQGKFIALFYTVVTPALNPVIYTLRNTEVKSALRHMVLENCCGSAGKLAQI
In short: (§1)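 Values were gathered from published papers (main text and supplementary material), with extra details requested from the original authors when needed, and checked for typos and inconsistencies. Each receptor–molecule pair is called responsive (active) if the original authors judged the measured signal statistically different from baseline, and non-responsive (inactive) otherwise. Assay methods varied by source, often transient mammalian cell-line luciferase assays. Recorded details include cell line, G-protein, co-transfected protein and tags.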

[2] = molecular target: T2, OR2D2 (Homo sapiens) (UniProt Q9H210)
T2 sequence (whole entry): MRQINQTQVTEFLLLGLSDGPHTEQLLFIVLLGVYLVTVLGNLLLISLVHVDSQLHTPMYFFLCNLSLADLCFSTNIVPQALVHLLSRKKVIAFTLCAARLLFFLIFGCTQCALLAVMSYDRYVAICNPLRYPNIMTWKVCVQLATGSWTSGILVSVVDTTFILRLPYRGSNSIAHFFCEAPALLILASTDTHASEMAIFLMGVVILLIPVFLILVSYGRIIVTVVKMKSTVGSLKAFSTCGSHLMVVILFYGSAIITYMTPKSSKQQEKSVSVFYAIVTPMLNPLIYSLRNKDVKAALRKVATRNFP
In short: as §1

[3] = test system: T3, OR2D3
T3 sequence (whole entry): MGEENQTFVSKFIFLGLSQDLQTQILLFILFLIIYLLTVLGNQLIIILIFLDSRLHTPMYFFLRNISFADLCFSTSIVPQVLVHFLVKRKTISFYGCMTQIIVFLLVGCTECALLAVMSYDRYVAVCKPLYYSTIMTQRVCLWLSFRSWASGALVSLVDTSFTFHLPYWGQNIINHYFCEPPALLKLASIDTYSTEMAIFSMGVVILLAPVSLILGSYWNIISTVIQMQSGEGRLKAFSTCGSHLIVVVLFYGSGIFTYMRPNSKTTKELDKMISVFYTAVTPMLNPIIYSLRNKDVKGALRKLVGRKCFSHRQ
In short: as §1

[4] = molecular target: T4, OR2F1 (Homo sapiens) (UniProt Q13607)
T4 sequence (whole entry): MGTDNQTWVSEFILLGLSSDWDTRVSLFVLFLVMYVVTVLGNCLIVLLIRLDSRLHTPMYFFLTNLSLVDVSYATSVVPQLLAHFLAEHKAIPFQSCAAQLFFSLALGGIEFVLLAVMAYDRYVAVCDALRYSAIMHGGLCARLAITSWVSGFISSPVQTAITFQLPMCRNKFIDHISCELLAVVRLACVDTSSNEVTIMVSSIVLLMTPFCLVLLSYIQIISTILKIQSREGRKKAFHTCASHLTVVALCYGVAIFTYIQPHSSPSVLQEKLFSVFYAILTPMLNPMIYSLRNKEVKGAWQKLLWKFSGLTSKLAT
In short: as §1

[5] = test system: T5, OR2F2
T5 sequence (whole entry): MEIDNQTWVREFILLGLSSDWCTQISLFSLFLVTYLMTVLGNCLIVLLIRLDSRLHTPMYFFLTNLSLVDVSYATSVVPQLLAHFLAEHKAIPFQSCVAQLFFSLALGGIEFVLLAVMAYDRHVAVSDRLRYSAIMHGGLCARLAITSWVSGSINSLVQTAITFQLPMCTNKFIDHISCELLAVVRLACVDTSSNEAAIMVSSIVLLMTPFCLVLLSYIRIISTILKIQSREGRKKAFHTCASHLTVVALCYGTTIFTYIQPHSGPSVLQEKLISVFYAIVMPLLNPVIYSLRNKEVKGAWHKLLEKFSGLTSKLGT
In short: as §1

[6] = test system: T6, OR2G2
T6 sequence (whole entry): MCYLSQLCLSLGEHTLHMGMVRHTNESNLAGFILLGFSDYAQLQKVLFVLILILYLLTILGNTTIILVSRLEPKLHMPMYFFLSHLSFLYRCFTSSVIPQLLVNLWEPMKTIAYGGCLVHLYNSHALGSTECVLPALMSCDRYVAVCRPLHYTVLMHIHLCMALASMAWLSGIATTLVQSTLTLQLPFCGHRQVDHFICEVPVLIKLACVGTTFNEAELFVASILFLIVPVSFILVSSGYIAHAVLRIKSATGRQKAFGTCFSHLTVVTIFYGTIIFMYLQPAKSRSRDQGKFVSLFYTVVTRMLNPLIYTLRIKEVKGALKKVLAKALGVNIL
In short: as §1

[7] = test system: T7, OR2G2; remark: listed apart in the source
T7 sequence (whole entry): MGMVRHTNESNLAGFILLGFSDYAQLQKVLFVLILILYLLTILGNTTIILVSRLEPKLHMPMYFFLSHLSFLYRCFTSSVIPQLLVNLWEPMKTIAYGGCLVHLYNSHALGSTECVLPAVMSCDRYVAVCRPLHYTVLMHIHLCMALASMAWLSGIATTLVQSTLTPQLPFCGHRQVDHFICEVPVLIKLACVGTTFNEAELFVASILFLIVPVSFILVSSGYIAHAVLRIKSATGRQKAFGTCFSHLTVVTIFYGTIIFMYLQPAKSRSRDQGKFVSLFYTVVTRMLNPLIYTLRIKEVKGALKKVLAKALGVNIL
In short: as §1

[8] = molecular target: T8, OR2G3 (Homo sapiens) (UniProt Q8NGZ4)
T8 sequence (whole entry): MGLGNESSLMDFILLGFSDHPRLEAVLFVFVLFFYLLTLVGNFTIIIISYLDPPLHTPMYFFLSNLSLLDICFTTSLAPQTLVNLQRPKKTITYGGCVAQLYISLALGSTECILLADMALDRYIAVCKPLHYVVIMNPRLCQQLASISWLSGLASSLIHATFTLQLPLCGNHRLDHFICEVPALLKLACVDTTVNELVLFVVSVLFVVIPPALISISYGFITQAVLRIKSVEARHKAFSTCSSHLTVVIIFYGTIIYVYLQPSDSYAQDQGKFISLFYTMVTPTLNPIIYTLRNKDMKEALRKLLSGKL
In short: as §1

[9] = test system: T9, OR2G3
T9 sequence (whole entry): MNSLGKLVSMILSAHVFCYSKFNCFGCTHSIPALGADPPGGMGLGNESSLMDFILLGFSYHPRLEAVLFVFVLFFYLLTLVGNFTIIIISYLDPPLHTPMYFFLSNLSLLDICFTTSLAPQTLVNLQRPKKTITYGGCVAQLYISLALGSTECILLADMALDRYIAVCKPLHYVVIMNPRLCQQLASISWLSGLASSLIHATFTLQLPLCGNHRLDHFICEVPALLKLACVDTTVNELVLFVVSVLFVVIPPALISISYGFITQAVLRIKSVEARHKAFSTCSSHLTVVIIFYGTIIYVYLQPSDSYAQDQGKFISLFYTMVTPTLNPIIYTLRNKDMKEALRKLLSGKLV
In short: as §1

[10] = molecular target: T10, OR2G6 (Homo sapiens) (UniProt Q5TZ20)
T10 sequence (whole entry): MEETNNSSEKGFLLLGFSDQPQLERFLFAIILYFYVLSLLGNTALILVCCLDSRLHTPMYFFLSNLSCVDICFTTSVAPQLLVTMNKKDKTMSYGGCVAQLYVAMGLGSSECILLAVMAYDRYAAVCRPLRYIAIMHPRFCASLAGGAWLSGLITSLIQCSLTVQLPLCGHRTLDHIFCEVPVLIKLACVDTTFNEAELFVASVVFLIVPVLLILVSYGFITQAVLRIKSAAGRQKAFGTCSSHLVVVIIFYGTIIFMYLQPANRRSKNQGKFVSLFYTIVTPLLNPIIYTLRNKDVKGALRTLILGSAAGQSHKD
In short: as §1

[11] = molecular target: T11, OR2H1 (Homo sapiens) (UniProt Q9GZK4)
T11 sequence (whole entry): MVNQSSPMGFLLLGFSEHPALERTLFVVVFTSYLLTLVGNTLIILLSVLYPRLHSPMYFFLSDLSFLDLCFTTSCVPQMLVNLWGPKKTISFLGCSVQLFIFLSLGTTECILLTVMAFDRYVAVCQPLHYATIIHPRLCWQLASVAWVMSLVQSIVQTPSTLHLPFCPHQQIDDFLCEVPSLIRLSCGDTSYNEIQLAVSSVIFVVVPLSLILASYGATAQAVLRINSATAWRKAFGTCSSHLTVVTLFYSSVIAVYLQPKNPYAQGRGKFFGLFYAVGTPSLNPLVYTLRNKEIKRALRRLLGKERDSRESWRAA
In short: as §1

[12] = test system: T12, OR2H2
T12 sequence (whole entry): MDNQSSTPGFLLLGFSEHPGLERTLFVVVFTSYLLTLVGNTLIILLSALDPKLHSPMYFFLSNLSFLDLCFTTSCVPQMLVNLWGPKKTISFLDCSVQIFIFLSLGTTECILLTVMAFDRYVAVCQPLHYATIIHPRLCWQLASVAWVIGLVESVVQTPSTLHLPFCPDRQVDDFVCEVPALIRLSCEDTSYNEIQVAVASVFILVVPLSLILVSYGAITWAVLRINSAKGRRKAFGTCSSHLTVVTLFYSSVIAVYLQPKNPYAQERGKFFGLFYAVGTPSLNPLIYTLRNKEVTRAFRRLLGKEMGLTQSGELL
In short: as §1

[13] = molecular target: T13, OR2G2 (Homo sapiens) (UniProt Q8NGZ5)
T13 sequence (whole entry): T7 sequence (whole entry) with A24P, P167L, G236R
In short: as §1

CC12CCC(CC1)C(C)(C)O2
odorant receptor agonist call [1]: inactive
odorant receptor agonist call [2]: inactive
odorant receptor agonist call [3]: inactive
odorant receptor agonist call [4]: inactive
odorant receptor agonist call [5]: inactive
odorant receptor agonist call [6]: inactive
odorant receptor agonist call [7]: inactive
odorant receptor agonist call [8]: inactive
odorant receptor agonist call [9]: inactive
odorant receptor agonist call [10]: inactive
odorant receptor agonist call [11]: inactive
odorant receptor agonist call [12]: inactive

O=C1CCCCCCCCCCCCCCO1
odorant receptor agonist call [1]: inactive
odorant receptor agonist call [2]: inactive
odorant receptor agonist call [3]: inactive
odorant receptor agonist call [4]: inactive
odorant receptor agonist call [5]: inactive
odorant receptor agonist call [13]: inactive
odorant receptor agonist call [6]: inactive
odorant receptor agonist call [7]: inactive
odorant receptor agonist call [8]: inactive
odorant receptor agonist call [9]: inactive
odorant receptor agonist call [10]: inactive
odorant receptor agonist call [11]: inactive
odorant receptor agonist call [12]: inactive

CCCCCCCC=CC=O
odorant receptor agonist call [1]: active
odorant receptor agonist call [2]: inactive
odorant receptor agonist call [3]: inactive
odorant receptor agonist call [4]: inactive
odorant receptor agonist call [5]: inactive
odorant receptor agonist call [6]: inactive
odorant receptor agonist call [7]: inactive
odorant receptor agonist call [8]: inactive
odorant receptor agonist call [9]: inactive
odorant receptor agonist call [10]: inactive
odorant receptor agonist call [11]: inactive
odorant receptor agonist call [12]: inactive

CC(=O)C(C)=O
odorant receptor agonist call [1]: inactive
odorant receptor agonist call [2]: inactive
odorant receptor agonist call [3]: inactive
odorant receptor agonist call [4]: inactive
odorant receptor agonist call [5]: inactive
odorant receptor agonist call [6]: inactive
odorant receptor agonist call [7]: inactive
odorant receptor agonist call [8]: inactive
odorant receptor agonist call [9]: inactive
odorant receptor agonist call [10]: inactive
odorant receptor agonist call [11]: inactive
odorant receptor agonist call [12]: inactive

CCCCCCCOC(C)=O
odorant receptor agonist call [1]: inactive
odorant receptor agonist call [2]: inactive
odorant receptor agonist call [3]: inactive
odorant receptor agonist call [4]: inactive
odorant receptor agonist call [5]: inactive
odorant receptor agonist call [6]: inactive
odorant receptor agonist call [7]: inactive
odorant receptor agonist call [8]: inactive
odorant receptor agonist call [9]: inactive
odorant receptor agonist call [10]: inactive
odorant receptor agonist call [11]: inactive
odorant receptor agonist call [12]: inactive

CC(=O)OC1CC2CCC1(C)C2(C)C (centres undefined)
odorant receptor agonist call [1]: inactive
odorant receptor agonist call [2]: inactive
odorant receptor agonist call [3]: inactive
odorant receptor agonist call [4]: inactive
odorant receptor agonist call [5]: inactive
odorant receptor agonist call [13]: inactive
odorant receptor agonist call [6]: inactive
odorant receptor agonist call [7]: inactive
odorant receptor agonist call [8]: inactive
odorant receptor agonist call [9]: inactive
odorant receptor agonist call [10]: inactive
odorant receptor agonist call [11]: inactive
odorant receptor agonist call [12]: inactive
